Source: PubChem BioAssay AID493014 (National Center for Advancing Translational Sciences (NCATS), 2011)
About 170 (0.05%) of roughly 340,000 compounds were called active. The shares of active, inactive and inconclusive entries below differ from those in the screen. Calls come from the whole dose curve; as a rule, active = well fitted inhibition curve with a large enough effect in the signal ratio, with a control signal flat (not every such curve was filed as active); inconclusive = small, poorly fitted or top-dose-only effect, or effect the other way, or a change in a side signal; inactive = flat fitted curve, though single readings scatter; the % refers to the signal ratio. Potencies of inconclusive entries are doubtful fits and often do not repeat.

assay: qHTS Assay to Find Inhibitors of Chronic Active B-Cell Receptor Signaling; conditions: ABC-DLBCL IkBa-CBG/CBR reporter, luminescence ratio (green luciferase fused to IkBa over red control in TMD8 lymphoma cells), 4 h; activity change, negative = inhibition: at 46.1 µM (top of the series);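 for activity change, negative = inhibition: plate controls were basal doxycycline-induced cells for no effect and cells given 10 µM MG132 for full effect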
In short: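 TMD8 ABC-DLBCL cells carrying doxycycline-inducible green luciferase fused to IkappaBalpha plus unfused red luciferase were exposed to compounds (up to 46 uM) for 4 hrs at 37C. Activity came from the overlap-corrected green/red luminescence ratio.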
Potency is the fitted concentration of half-maximal effect.

Structure (SMILES) | Potency | activity change, negative = inhibition
Cc1cc(-c2ccccc2)nc2cc(C(=O)NCc3ccco3)nn12 | inconclusive: 35.5 µM [falling, single point] | –
COc1cc(CCC(=O)OCC(=O)Nc2nc(C)c(Cl)cc2Cl)cc(OC)c1OC | – | inconclusive: -14.7%
C[C@@H](CN1C2=NC[C@H](C)N2C[C@H]1Cc1ccc(O)cc1)NC(=O)CCC1CCCCC1 | – | inactive: -0.64%
CCn1c(SCC(=O)NCc2ccc3c(c2)OCO3)nc2c(c1=O)SCC2 | – | inconclusive: -7.87%
COC(=O)c1ccc(NC(=O)CC(=O)Nc2ccc(C(=O)OC)cc2)cc1 | – | inconclusive: 12.2%
CCOC(=O)c1c(N)sc(-c2ccccc2)c1C | – | inconclusive: 6.52%
CCC(=O)NCCc1nc2cc(NC(=O)c3ccco3)ccc2n1C | inconclusive: 10 µM [falling, partial curve] | –
Cc1onc(-c2ccccc2)c1C(=O)OCCOc1cccc(Cl)c1 | – | inactive: 10.1%
Brc1ccc(CN2CCN(Cc3c[nH]c4ccccc34)CC2)cc1 | – | inconclusive: -0.154%
O=[N+]([O-])c1ccc(/C=N/NC(=S)Nc2ccc(Cl)cc2Cl)s1 | – | inconclusive: 0.194%
Nc1ccc(N2CCCCC2)c2nonc12 | – | inactive: -6.96%
COCCCNCCOCCOc1ccc(Cl)cc1C(C)(C)C | – | inconclusive: -17.1%
COc1ccc(Cl)cc1C(=O)NNC(=S)NC1CCCC1 | – | inconclusive: -11%
COC(=O)c1cc(NCc2c(F)cccc2Cl)ccc1N1CCOCC1 | inconclusive: 10 µM [falling, partial curve] | –
O=C(NC1CCS(=O)(=O)C1)c1cccc(S(=O)(=O)N2CCCCC2)c1 (configuration not stated) | inconclusive: 4.61 µM [falling, partial curve, poor fit] | –
O=C(C=C1CCN(c2ncc(C(F)(F)F)cc2Cl)CC1)NNC(=O)Nc1ccc(Cl)cc1 | – | inconclusive: 2.43%
COc1ccc(OC)c(-c2cn(S(=O)(=O)c3ccccc3)nc2N)c1 | inconclusive: 29.1 µM [falling, single point] | –
COc1ccc(/C=N/NC(=O)c2cccc([N+](=O)[O-])c2)cc1OC(=O)c1ccc(C)cc1 | – | inactive: 2.92%
CCC(C)(C(=O)NC1CCCC1)N(C(=O)c1cnccn1)c1c(C)n(C)n(-c2ccccc2)c1=O (configuration not stated) | – | inconclusive: 2.14%
CC(=O)c1ccc(N2CCN(C(=O)C(=O)c3c(C)[nH]c4ccccc34)CC2)cc1 | – | inconclusive: 0.523%
CCOC(=O)c1cnn(-c2ccccc2)c1NC(=O)c1cccs1 | – | inconclusive: -1.6%

Looked up above:
COC(=O)c1cc(NCc2c(F)cccc2Cl)ccc1N1CCOCC1 – Potency: inconclusive: 10 µM [falling, partial curve]
O=C(C=C1CCN(c2ncc(C(F)(F)F)cc2Cl)CC1)NNC(=O)Nc1ccc(Cl)cc1 – activity change, negative = inhibition: inconclusive: 2.43%

Following part

Structure (SMILES) | Potency | activity change, negative = inhibition
CC(C)C(=O)Nc1ccc(S(=O)(=O)Nc2nccc(/C=C/c3ccccc3)n2)cc1 | – | inconclusive: -19.6%
Cc1c2c(nc3c(C(=O)NC4CC4)cnn13)CCCC2 | – | inconclusive: 6.75%
COc1ccc2cc3cc(C(=O)NCCCN4CCc5ccccc5C4)sc3nc2c1 | – | inactive: -9.16%
CCCCNC1=CC(=O)C(=O)c2ccccc21 | – | inconclusive: 259%
COc1ccc(N(CC(=O)NN=C2CCN(C)CC2)S(=O)(=O)c2ccccc2)c(OC)c1 | – | inactive: 5.87%
CCc1cccc(NC(=O)C2CCCN(S(=O)(=O)c3cccs3)C2)c1 (configuration not stated) | inconclusive: 7.94 µM [falling, partial curve] | –
CCOC(=O)c1ccc(NS(=O)C23CC4CC(CC(C4)C2)C3)cc1 (configuration not stated) | – | inactive: 5.45%
CCN(CC(=O)NCc1ccc(F)cc1)Cc1nc2cc(Cl)ccc2c(=O)[nH]1 | – | inconclusive: 9.83%
CCOC(=O)C1=C(CN2CCCCC2)NC(=O)NC1c1cc(C)ccc1C (configuration not stated) | – | inconclusive: -17.5%
O=C(c1ccc(Cn2c(=S)[nH]c3cc4c(cc3c2=O)OCO4)cc1)N1CCN(c2ccccc2)CC1 | – | inactive: -4.37%
Cn1cnnc1SCC(=O)c1ccc2c(c1)NC(=O)CO2 | – | inconclusive: 4.66%
O=C(Cn1cnc2scc(-c3ccc(Cl)cc3)c2c1=O)N1CCOCC1 | – | inconclusive: -0.558%
c1ccc(-c2cncn2-c2ccccc2)cc1 | – | inactive: -2.03%
CC(=O)NCCc1nc2cc(NC(=O)Nc3ccccc3)ccc2n1C | inconclusive: 22.4 µM [falling, partial curve] | –
O=C1CCN2C=Nc3cccc4ccc1c2c34 | – | inactive: -11%
Nc1ccccc1NC1=CC(=O)CC(c2ccco2)C1 (configuration not stated) | – | inconclusive: 3.94%
CCOC(=O)CN(C)S(=O)(=O)c1ccc(-c2cc(C(=O)OC)sc2C(F)(F)F)cc1 | – | inconclusive: 4.22%
COC(=O)C1=CN(c2cc(C)cc(C)c2)C=C(C(=O)OC)C1c1cccc(F)c1 | – | inactive: -1.58%
CC(Oc1ccc(Cl)cc1Cl)C(=O)NNC(=O)C(=O)N1CCCCC1 (configuration not stated) | – | inactive: -8.54%
COCc1nnc(NC(=O)CCCOc2ccccc2)s1 | – | inconclusive: 7.81%
COc1ccc(C(=O)OC(C)C(=O)NC(C)CCc2ccccc2)cc1OC (configuration not stated) | – | inactive: -2.65%

Structure (SMILES) | Potency | activity change, negative = inhibition
O=C(c1ccccc1)N1CCN(c2ccc([N+](=O)[O-])cc2-n2cccc2)CC1 | – | inconclusive: -0.557%
COc1ccc2c(c1)[C@H]1[C@H](CO2)[C@H](c2ccccc2)[C@]2(C)C(=O)Nc3cc(Cl)ccc3C(=O)N12 | – | inconclusive: 26.7%
CCCOc1ccc(CSCCNC(=S)Nc2ccccc2)cc1 | – | inactive: 1.84%
CCCCn1nc(C(=O)OCC(=O)Nc2sccc2C(N)=O)c2ccccc2c1=O | inconclusive: 12.6 µM [falling, single point] | –
Cc1ccc(C2=CC(c3ccccc3F)n3c(nc4ccccc43)N2)cc1C (configuration not stated) | inconclusive: 31.6 µM [rising, partial curve] | –
Cc1ccc2nc3sc(C(=O)NCc4ccco4)c(N)c3cc2c1 | inconclusive: 4.11 µM [rising, full curve] | –
CC(=O)c1cccc(OCC(=O)N(C)CC(=O)NCc2ccco2)c1 | – | inconclusive: 1.05%
COc1ccc(/C=N/NC(=O)c2cccc(COCC(F)(F)C(F)F)c2)cc1 | inconclusive: 10.3 µM [falling, partial curve] | –
Nc1nc2cc3ccccc3cc2[nH]c1=O | – | inconclusive: -1.42%
COc1ccc(-c2nc(NC(C)=O)sc2-c2ccccc2)cc1 | inconclusive: 14.1 µM [falling, partial curve, poor fit] | –
COc1ccc(/C=C/C(=O)N/C(=C\c2ccco2)C(=O)NCCc2nc3ccccc3[nH]2)cc1 | inconclusive: 29.1 µM [falling, single point] | –
CCOc1ccc(N(C)S(=O)(=O)c2ccc3[nH]cc(C(=O)NCC4CCCO4)c(=O)c3c2)cc1 (configuration not stated) | inconclusive: 0.82 µM [rising, full curve, poor fit] | –
Oc1ccc(Br)cc1CNc1cnc2ccccc2c1 | – | inconclusive: 8.8%
Clc1cccc(-c2ccc(CNCCCN3CCOCC3)o2)c1 | – | inactive: -4.01%
COC(=O)c1ccc(CSc2n[nH]c(=S)s2)o1 | – | inconclusive: 8.93%
CCOc1cc(NC(=S)NCCCN2CCOCC2)c(OCC)cc1NC(=O)C1CCCCC1 | – | inconclusive: 10.6%
CCOC(=O)C(NCc1ccco1)(NC(=O)c1ccc(OC)cc1)C(F)(F)F (configuration not stated) | – | inconclusive: -7.56%
CCCCOc1ccc(OCCSc2nc3ccccc3n2CC(=O)O)cc1 | – | inconclusive: 18.1%
Cc1cc(/C=C2/NC(=O)NC2=O)c(C)n1-c1ccccn1 | – | inactive: 3.88%
COc1ccccc1N(C)S(=O)(=O)c1ccc(C(=O)Nc2ccc(N3CCOCC3)cc2)cc1 | – | inconclusive: -7.55%
CCCCOc1ncnc2c1[nH]c1ccc(OC)cc12 | – | inconclusive: 8.64%

Structure (SMILES) | Potency | activity change, negative = inhibition
COc1ccc(-c2nc3n(c2C)Cc2ccccc2-3)cc1 | – | inconclusive: 16.1%
N=c1c2c(ncn1Cc1ccco1)Oc1c(ccc3ccccc13)C2c1ccccc1 (configuration not stated) | – | inconclusive: 8.09%
CCN(CC)S(=O)(=O)c1cccc(C(=O)N[C@H](C(=O)O)C(C)C)c1 | inconclusive: 29.1 µM [rising, single point] | –
COc1ccc(C(=O)/C=C/c2cccnc2)c(OC)c1 | – | inconclusive: -3.23%
CCOP(=O)(OCC)C(NC(=O)Nc1ccc(Cl)cc1)C(N)=O (configuration not stated) | – | inconclusive: 9.24%
CCOC(=O)CSc1nc(-c2ccc3c(c2)OCO3)ccc1C#N | – | inconclusive: 12.6%
COCCOC(=O)c1c(C)oc2ccc(OCc3ccccc3)cc12 | – | inconclusive: 6.3%
C[n+]1nc(Nc2cccc3ccccc23)sc1-c1ccc(C(=O)O)cc1 | inconclusive: 31.6 µM [rising, single point] | –
COc1cc2oc(=O)cc(-c3ccc(-c4ccc(C)cc4)cc3)c2c(OC)c1OC | – | inconclusive: 5.43%
CCN(c1ccc(OC)cc1)S(=O)(=O)c1nnc(NC(=O)c2ccco2)s1 | – | inactive: 12.1%
c1ccc(Cn2nnc3c(NCCN4CCOCC4)ncnc32)cc1 | – | inactive: -1.48%
NC(=O)c1ccccc1NS(=O)(=O)c1ccc(F)cc1 | – | inconclusive: -0.0546%
CC(=O)c1ccc(C(=O)N(Cc2cccnc2)c2nc3c(C)c(C)ccc3s2)cc1 | inconclusive: 25.1 µM [rising, single point] | –
C=CCN(CC=C)C(=S)NC(=O)c1ccc(C)c(Br)c1 | – | inconclusive: -11.7%
Cc1cc(C(=O)OCC(=O)NC2CCS(=O)(=O)C2)c(C)n1-c1ccccc1 (configuration not stated) | inconclusive: 23.1 µM [falling, single point] | –
O=C(Nc1ccc(C(=O)N2CCCC2)cc1)c1ccccc1Br | inconclusive: 20 µM [falling, single point] | –
COCc1[nH]nc2c1C(c1sccc1C)C(C#N)=C(N)O2 (configuration not stated) | inconclusive: 12.6 µM [falling, partial curve] | –
Cc1cnc(C(=O)OCC(=O)Nc2ccc(Br)c(C)c2)cn1 | – | inactive: 3.15%
O=C(N/N=C/c1cn(-c2ccccc2)nc1-c1cccs1)c1ccncc1 | – | inconclusive: 2.98%

Single records (already shown). Values in the order: Potency	activity change, negative = inhibition
CC(=O)c1ccc(C(=O)N(Cc2cccnc2)c2nc3c(C)c(C)ccc3s2)cc1 as listed: inconclusive: 25.1 µM [rising, single point]	–
CCOP(=O)(OCC)C(NC(=O)Nc1ccc(Cl)cc1)C(N)=O (configuration not stated) as listed: –	inconclusive: 9.24%
N=c1c2c(ncn1Cc1ccco1)Oc1c(ccc3ccccc13)C2c1ccccc1 (configuration not stated) as listed: –	inconclusive: 8.09%
COc1ccc(-c2nc3n(c2C)Cc2ccccc2-3)cc1 as listed: –	inconclusive: 16.1%
